PubChem BioAssay AID1259405 | NCATS, 2018

- Aim: 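Silenced genes that increase secreted GFP made by CHO cells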 (primary screen)
- Cell system: Chinese hamster CHO-K1 ovary cells with stable secreted eGFP expression
- Reagents: single siRNA against mouse genes, 0.8 pmol siRNA per well (2 µl of 400 nM stock)
- Time to read-out: 3 days
- Measured: 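Per-well intracellular GFP measured by laser scanning cytometry, plus viability from ATP luminescence, each relative to plate median of non-targeting control wells, in %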
- Direction: GFP, % of control: higher = more GFP per well, higher productivity; viability (ATP), % of control: higher = more viable cells (more ATP)
- Rule for the call: 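Called active when intracellular GFP, relative to negative control, is at or above 120%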
This is a random part of about 50,000 deposited reagents. About 4,000 of them (8%) count as active. 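Mouse siRNA library applied to hamster cells; one well for each siRNA.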 Reagents against one gene are numbered here.

| target gene | siRNA no. | GFP, % of control | viability (ATP), % of control | activity call |
| --- | --- | --- | --- | --- |
| Fam167a | 1 | 80.7 | 39.8 | inactive |
| Fam167a | 2 | 57.2 | 53.7 | inactive |
| Fam167a | 3 | 78.4 | 80 | inactive |
| Kctd10 | 1 | 116 | 128 | inactive |
| Kctd10 | 2 | 54.5 | 61.8 | inactive |
| Nova2 | 1 | 65.6 | 54.8 | inactive |
| Nova2 | 2 | 134 | 90.1 | active |
| Slc10a1 | 1 | 136 | 67.2 | active |
| Slc10a1 | 2 | 57.5 | 52.2 | inactive |
| Slc10a1 | 3 | 76.9 | 48.5 | inactive |
| Anxa11 | 1 | 78.9 | 109 | inactive |
| Anxa11 | 2 | 50.1 | 49.3 | inactive |
| Anxa11 | 3 | 80.8 | 72.6 | inactive |
| Hdc | 1 | 74.1 | 87.7 | inactive |
| Hdc | 2 | 78.9 | 58.6 | inactive |
| Hdc | 3 | 58.2 | 47.8 | inactive |
| Vmn1r13 | 1 | 136 | 116 | active |
| Vmn1r13 | 2 | 83.6 | 65.8 | inactive |
| Vmn1r13 | 3 | 76.6 | 97.9 | inactive |
| Dync1i2 | 1 | 91.9 | 53.6 | inactive |
| Dync1i2 | 2 | 103 | 113 | inactive |
| Senp5 | 1 | 83.8 | 86.1 | inactive |
| Senp5 | 2 | 29.1 | 38.5 | inactive |
| Senp5 | 3 | 125 | 93.9 | active |

Entries listed so far whose target name starts with N or n:
| target gene | siRNA no. | GFP, % of control | viability (ATP), % of control | activity call |
| --- | --- | --- | --- | --- |
| Nova2 | 1 | 65.6 | 54.8 | inactive |
| Nova2 | 2 | 134 | 90.1 | active |

Continued:
| target gene | siRNA no. | GFP, % of control | viability (ATP), % of control | activity call |
| --- | --- | --- | --- | --- |
| Copb1 | 1 | 87.3 | 107 | inactive |
| Copb1 | 2 | 60.2 | 69.6 | inactive |
| C2cd5 | 1 | 58.4 | 31.4 | inactive |
| C2cd5 | 2 | 77.4 | 94.9 | inactive |
| C2cd5 | 3 | 96.8 | 99.5 | inactive |
| Hsd17b14 | 1 | 61.2 | 56.7 | inactive |
| Hsd17b14 | 2 | 54.3 | 58.2 | inactive |
| Hsd17b14 | 3 | 52.3 | 53.2 | inactive |
| Sin3b | 1 | 64.6 | 70.4 | inactive |
| Sin3b | 2 | 96.5 | 70.3 | inactive |
| Sin3b | 3 | 59.3 | 44.3 | inactive |
| Pfkfb2 | 1 | 91.3 | 93 | inactive |
| Pfkfb2 | 2 | 72.6 | 74.4 | inactive |
| Pfkfb2 | 3 | 77.8 | 72.8 | inactive |
| Tomm34 | 1 | 92.7 | 117 | inactive |
| Tomm34 | 2 | 82.4 | 70.2 | inactive |
| Mep1b | 1 | 84 | 91.6 | inactive |
| Mep1b | 2 | 52.9 | 55.3 | inactive |
| Mep1b | 3 | 62.2 | 103 | inactive |
| Nelfa | 1 | 85 | 78.9 | inactive |
| Nelfa | 2 | 89.3 | 87.7 | inactive |
| Nelfa | 3 | 51.3 | 84.7 | inactive |
